# Article PMC7819943, “Rice protein-binding microarrays: a tool to detect cis-acting elements near promoter regions in rice”
# By UniProt entry, the sequences of proteins in these tests, tags left out.
# UniProt Q0JBA9, entry or part of it: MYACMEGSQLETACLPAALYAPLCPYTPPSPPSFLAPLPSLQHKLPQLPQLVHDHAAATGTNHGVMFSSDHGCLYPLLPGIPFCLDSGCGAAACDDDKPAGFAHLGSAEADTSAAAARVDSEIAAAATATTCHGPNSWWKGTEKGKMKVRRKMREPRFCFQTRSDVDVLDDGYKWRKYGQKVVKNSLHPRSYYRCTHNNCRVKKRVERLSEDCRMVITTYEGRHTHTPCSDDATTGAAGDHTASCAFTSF
# The list shows a part of the results.
# Target: OsWRKY34 (Oryza sativa, UniProt Q0JBA9 1-250)
# Assay: protein-binding microarray (RPBM); PBS, 2% BSA, 51.3 ng/ul salmon testes DNA, 50 uM zinc acetate, 200 nM TF, 25 C, 1 h; high values mean tight binding
# Conditions: protein: recombinant; tags: N-terminal polyhistidine and DsRed monomer fusion (pET32a); label: CyDye5-dUTP incorporated in the synthesized complementary strand; 3' TTTTT single-stranded linker to array surface; dsDNA, one strand shown
# How it was run: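 The binding signal is fluorescence intensity per array feature (arbitrary units). Readings came from an Axon 4000B scanner after a washed, 2% BSA-blocked, double-stranded custom Agilent array had been incubated for 1 h at 25 °C with 200 nM protein and 50 µM zinc acetate. The protein was a Ni–NTA-purified transcription factor fused N-terminally to polyhistidine and DsRed, expressed in E. coli BL21-CodonPlus.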
row,Sequence,binding signal
1,GGCCGCGCTAGCCCATCCCCATGCCGAACCAGCTAGCCCACGGAGTCACCTAGTGCAG,8050 fluorescence intensity (a.u.)
2,CTATCTTCCGTTCCACCCGCTCCCGTTGAGCTCAATTATCCGGAGTCACCTAGTGCAG,10500 fluorescence intensity (a.u.)
3,CAAATAACCGGTCAGCCCATCACTCCGTCACAGTTCACAGCGGAGTCACCTAGTGCAG,8070 fluorescence intensity (a.u.)
4,AAATCCGGCGCCAAATTTACCCGCGCCTTCACTCGTGTGACGGAGTCACCTAGTGCAG,8660 fluorescence intensity (a.u.)
5,AACAAGGCATCCGCACCCGCATTAAAAACGCTATTTCTTTCGGAGTCACCTAGTGCAG,9670 fluorescence intensity (a.u.)
6,GAAGGTTATAACCTCTGCACTCACACCATATGCATGTCCTCGGAGTCACCTAGTGCAG,9110 fluorescence intensity (a.u.)
7,ACATGTAGCACGAGCCGTTCCTTGTGCCACCCAGACGAATCGGAGTCACCTAGTGCAG,8090 fluorescence intensity (a.u.)
8,GGGGAAACTCTTTTATTGTCTTAAGGGATGTCCTCTCAATCGGAGTCACCTAGTGCAG,11200 fluorescence intensity (a.u.)
9,TCGCCCACCGCCTGAGCCGATCCATCTCGCGCGATCCCGCCGGAGTCACCTAGTGCAG,9260 fluorescence intensity (a.u.)
10,TAGACTTTTTCTCACATGTTTGACCATTCGTCTTATTCAACGGAGTCACCTAGTGCAG,11700 fluorescence intensity (a.u.)
11,CTTTGTCACCATTTGCCAATAAATGTTGTTACACTTGCCACGGAGTCACCTAGTGCAG,8070 fluorescence intensity (a.u.)
12,TTTCCGACCTTGCAGTATTGATAATCATTCATTTCACCTTCGGAGTCACCTAGTGCAG,8540 fluorescence intensity (a.u.)
13,TTATACTCACTTGTTTTTCACACGCGCATATTTTTTAAATCGGAGTCACCTAGTGCAG,8030 fluorescence intensity (a.u.)
14,ACCGAGGTTGACCAGGCCCCACATGTAAGCGAGAGGAGCTCGGAGTCACCTAGTGCAG,8980 fluorescence intensity (a.u.)
15,TTTCTGTTCGCACACCAGCATGCATGCATGCGTTGCACTCCGGAGTCACCTAGTGCAG,9150 fluorescence intensity (a.u.)
16,TGTATTTTTCATGTAGTAAACCACATCTCCTACAGTTCTACGGAGTCACCTAGTGCAG,8380 fluorescence intensity (a.u.)
17,GACCTCTCCATCTCGCTCTCTGCTCGATTCCGAGCGGCTCCGGAGTCACCTAGTGCAG,8220 fluorescence intensity (a.u.)
18,AGAGCTTGAGGTGGTTGGATTTTTCTCGTACTTTTCATGTCGGAGTCACCTAGTGCAG,11700 fluorescence intensity (a.u.)
19,TGACCAACATCAAGTAATATAGCCATGATATATTTTCTACCGGAGTCACCTAGTGCAG,8130 fluorescence intensity (a.u.)
20,ATAACTTGCACATCCTTTTTGCTCTCTTATGATTTGTTATCGGAGTCACCTAGTGCAG,9640 fluorescence intensity (a.u.)
21,CCATTAACTTTTTCCCACCTACCTTCACTATTCATCCAATCGGAGTCACCTAGTGCAG,10300 fluorescence intensity (a.u.)

# Part of the list above, as tab-separated lines:
row	Sequence	binding signal
11	CTTTGTCACCATTTGCCAATAAATGTTGTTACACTTGCCACGGAGTCACCTAGTGCAG	8070 fluorescence intensity (a.u.)
12	TTTCCGACCTTGCAGTATTGATAATCATTCATTTCACCTTCGGAGTCACCTAGTGCAG	8540 fluorescence intensity (a.u.)

# (listing goes on)

row,Sequence,binding signal
1,TTGCTTCATCGATTGGGAGGTTTCTTGCTGTTCTTGGGTTCGGAGTCACCTAGTGCAG,10100 fluorescence intensity (a.u.)
2,CTAGTAGTGCACACAAGCGGCAGCAGGAGGGGAGGGTGGTCGGAGTCACCTAGTGCAG,9190 fluorescence intensity (a.u.)
3,TGGATGTATGTGTTTTTTTTATATTTATGTATGTTTATTCCGGAGTCACCTAGTGCAG,9360 fluorescence intensity (a.u.)
4,TGAAATTTTTACTGTCATGCTTCCTTGTCCCATTACTACACGGAGTCACCTAGTGCAG,8120 fluorescence intensity (a.u.)
5,ATCGTCTTCCTCGTGAGCGTCCGCGCCCACCCACCTAACCCGGAGTCACCTAGTGCAG,9680 fluorescence intensity (a.u.)
6,CGGTGTACTTTTTCCTTTCCGATATAAGCTTATTCCTATGCGGAGTCACCTAGTGCAG,9380 fluorescence intensity (a.u.)
7,GGATGTGGTGTGAGGCGGTGAGGTGGAGGGAACACGGGGACGGAGTCACCTAGTGCAG,9340 fluorescence intensity (a.u.)
8,TCCGCCCATATCGATATATCTTTATTTCGAGCTACTTTTGCGGAGTCACCTAGTGCAG,8370 fluorescence intensity (a.u.)
9,ATCATATGATGCTTTGTCGGTGGTGGTGGTTCTTTCAATTCGGAGTCACCTAGTGCAG,14300 fluorescence intensity (a.u.)
10,GATTCTTCCAATTCCCTGAATCTTGCATGCTTGTAGTTTTCGGAGTCACCTAGTGCAG,11700 fluorescence intensity (a.u.)
11,TACGTTGGGTGTTATTTGATAGTATTTCCTTGTGTTCTTGCGGAGTCACCTAGTGCAG,8540 fluorescence intensity (a.u.)
12,AGCCAGTAGATTAGAGGATCAGGTTCCATTCAGAGTGTATCGGAGTCACCTAGTGCAG,8800 fluorescence intensity (a.u.)
13,GTTGCCAATATAAAAGATGCAAATGTGTTGTTGTCTGGTTCGGAGTCACCTAGTGCAG,9040 fluorescence intensity (a.u.)
14,TGTTTGTGATTCAGATACTGCTCTAGTGTGGCTTGCTGCCCGGAGTCACCTAGTGCAG,8240 fluorescence intensity (a.u.)
15,AACGATTCTTCCTCGCCGACGCCGCCACCCACCCACAACCCGGAGTCACCTAGTGCAG,8060 fluorescence intensity (a.u.)
16,CAAAAGCACTGGTATACTCCCTTCAACCTTTTCTTTTAAGCGGAGTCACCTAGTGCAG,8400 fluorescence intensity (a.u.)
17,TGCATCCACTTGCACCATCGCACCCGGTTTTTTACTGTGACGGAGTCACCTAGTGCAG,10500 fluorescence intensity (a.u.)
18,CGCCCGCTCCGCCGCATGCATGCATCCATACATTAAAACTCGGAGTCACCTAGTGCAG,8050 fluorescence intensity (a.u.)
19,CCTGCCATGTCATGTTTGTACCTAGATACCAGGTATGACGCGGAGTCACCTAGTGCAG,8960 fluorescence intensity (a.u.)
20,ACATTTCTGTTATTCCCCGCGGACAAGTCACAACTACTTCCGGAGTCACCTAGTGCAG,9830 fluorescence intensity (a.u.)
21,TCACCTCGTTTTTCTGTTATGGGTGTGAGTAACCTTGATCCGGAGTCACCTAGTGCAG,9250 fluorescence intensity (a.u.)
